# From PubChem BioAssay AID1347423 (Functional Genomics Laboratory (NCATS/FGL), 2020)
# Out of some 52,000 sequences screened, about 210 (0.4%) were called active.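 How the source made its calls: active means gene whose silencing raises cell survival under the drug, median off-target-corrected z-score across its silencing RNAs 2 or more; inactive means the rest.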 The list shows a part of the results.
# Assay: Resistance to Poly (ADP-Ribose) Polymerase inhibitor: Gene Identification via Genome-wide siRNA Screen
# Conditions: mouse BRCA2 R2336H ES cells, olaparib, CellTiter-Glo viability; stronger effect = higher value
# Procedure, shortened: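 Genome-wide siRNA screen (3 siRNAs/gene, 20 nM) in mouse ES cells carrying hypomorphic BRCA2 R2336H; olaparib 500 nM added 48 h post-transfection, CellTiter-Glo viability 72 h later. Normalized to plate-median negative control; MAD z-scores, gene median, seed-adjusted.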
row,Sequence,z-score
1,GAGAAGAAAAAAUGCAGUGTT against Olfr825,inactive: -0.245
2,GGAUUUCCCUAAAAAACACTT against Tbl2,inactive: 0.283
3,UGGGAAGGUGCUCACUGAGTT against BC048355,inactive: -1.49
4,CGCACAAGAGUGGUUCGAATT against Sytl1,inactive: 1.14
5,GGUGCAUUUAAAAAAGCUGTT against Olfr1448,inactive: -0.223
6,GCAGCCUUUGUACCAUUAUTT against LOC434881,inactive: -1.65
7,CCAGUUAUGACAAUUAAGATT against Epha3,inactive: 0.401
8,GGAACCUAUCCAAGAAGUATT against Ckap2,inactive: -0.379
9,GCCAAAAGAAAUUUGGGACTT against Txndc9,inactive: 0.167
10,GGAGAAAAAUCAUCUUAUCTT against Tead1,inactive: -0.454
11,CCAAGUCUCGUGUGAAAGATT against Nefh,inactive: 0.0612
12,GCCAUUACAAGUGAUAUAATT against 1810074P20Rik,inactive: -1.68
13,GCUGGAUGGCACUUAUGACTT against 2210413P12Rik,inactive: -0.576
14,GGCUAUGAAACAGUACAAUTT against Thoc4,inactive: -3.03
15,GCCAAGCUUGUCCAUUGAUTT against Akap9,inactive: -2.76
16,GGUACUAAUGGAUUACCCATT against BC031181,inactive: -1.67
17,GCUUAAAUAGCACAGAUUUTT against 2600014M03Rik,inactive: 1.04
18,GGAAUUGAUCCCAUUUUAATT against 1810038H16Rik,inactive: 1.83
19,GGAUAUAGGUGUGAUCUAGTT against 1810057P16Rik,inactive: 0.208
20,GGUCCAAGAAGGAUUACCUTT against Uox,inactive: 0.144
21,GGAUCCCACACUUUUCUGATT against Rxra,inactive: 1.02
22,CCGACUCCCAUGCAUCUAUTT against Mccc2,inactive: -0.122
23,GGAACAAGGUAAAAUACAUTT against Nthl1,inactive: -0.986
24,GGCUUACCUGAUGGUUGAUTT against Asb14,inactive: -0.814
25,GGAUGUACUUAACUGUAAGTT against 3110001D03Rik,inactive: -0.127
26,GCUGAUGGUAAAUUCACAGTT against LOC381286,inactive: 1.15

row,Sequence,z-score
1,CCAUUCAUUUUAUCACUUCTT against Il1rn,inactive: -0.013
2,GGUUUCUGGAGCGGCCAAATT against 2410004L22Rik,inactive: 0.365
3,GGACAUUUAAAAUCACUUGTT against 9030611O19Rik,inactive: -0.257
4,GGGCAAAAUCGUGUCAAGCTT against Dpp9,inactive: 0.588
5,GGAAAUGAUGAGCAAGUUATT against Wdr22,inactive: -0.729
6,GGACACUGUGUAUUUUGUATT against Col11a2,inactive: -1.3
7,GGUUUUCUACAGUUAUUGUTT against Ablim2,inactive: -0.223
8,GGCAUGUUGGAGGUAAUAATT against 1600031M04Rik,inactive: -1
9,GGGUGAAAUUCUGUUGAAGTT against D230002A01Rik,inactive: 0.27
10,GGAGUAUGGGACCAGAAUATT against Tarbp2,inactive: -1.53
11,GGUGAACGGUGAGAAUGUGTT against Slc9a3r1,inactive: -2.25
12,CCGGUACCUUGCUAUGAAGTT against Fgf2,inactive: 0.203
13,CCAUAGGUAUGUUAAUCGATT against Rpo1-2,inactive: -0.819
14,GGAGUUCUACAAUCAAACATT against Slc2a1,inactive: 0.715
15,CGCAUUUUCUCUCGAGCUUTT against Slc25a30,inactive: 0.744
16,GGAUGUCUGUCUCAAUUCUTT against Olfr1012,inactive: -0.948
17,GCAUAAAGAGGCCAUACCCTT against BC065120,inactive: -0.357
18,GCAUGCAAAUCUCCUCUAATT against Sema3b,inactive: -0.0836
19,GCAAUUUGUAUGACGGUCUTT against Olfr1240,inactive: 0.658
20,GCAGAGCUUACCACAGACUTT against Inppl1,inactive: 1.56
21,GCGUGAACGGAUAAAAAAUTT against Figla,inactive: 0.0291
22,GGCUCUAGAAGCGAGAAUCTT against Six6,inactive: 0.355
23,GGGCAUUCAUGAAGGUAUUTT against Olfr165,inactive: -0.576
24,GCCAGAUAUCUCACAGACATT against Ppil2,inactive: -1.93
25,GAGCAAGAUCCAGCCCUAUTT against Dub2,inactive: -0.66
26,GGACCCUGAACUACAACCUTT against Olfr860,inactive: 0.738

# In another format: results already given.
row | Sequence | z-score
7 | GGUUUUCUACAGUUAUUGUTT against Ablim2 | inactive: -0.223
8 | GGCAUGUUGGAGGUAAUAATT against 1600031M04Rik | inactive: -1

# The list goes on:

row,Sequence,z-score
1,GGAGUCUCCCAAAUGAAGATT against Son,inactive: -2.45
2,GUCACAGAAAGCUUAGUCCTT against Olfr427,inactive: -0.599
3,GGUAAUGCCACAUUGAUGGTT against Upk2,inactive: -0.554
4,CGCCUAGUUAAGGAAGACATT against Mcam,inactive: 0.22
5,GGAUAUGAAGCCUUCAUGGTT against Slc5a1,inactive: -1.05
6,GAAAAUGGUAAUCUAGGCATT against Siah1b,inactive: 1.04
7,GCAGCAUUGACUGAAGAUCTT against Sprrl10,inactive: -0.283
8,GGAUGACAUCUCUAUCUUUTT against Sca10,inactive: 0.508
9,GCCGGUUUCAGUUAAAGAGTT against Pccb,inactive: 2.26
10,GCCUGGUGUAUGCUAAUGGTT against Crim2,inactive: -1.06
11,CGAGCUCAGGUGAGAAAUUTT against Pfpl,inactive: 2.09
12,CGUGACUCGUUGUUUCUGGTT against Fyn,inactive: 0.365
13,GGCCGACCCGUUUUCUUUUTT against Nap1l4,inactive: 0.898
14,GGAUUUGCAUAUGUUCAAUTT against Fusip1,inactive: 0.164
15,GGAACUGAUGGAGAAGCUATT against Tpcn2,inactive: 0.428
16,GGAGUUUUGUAUGGUGAAATT against Cd8b,inactive: -2.01
17,GCACCUGGUAAGGUCAUUCTT against Olfr545,inactive: -0.743
18,GGAGUAUCUAACAUCUACUTT against 5930405J04Rik,inactive: -0.0646
19,GGGAACCUACGAGGAUUAUTT against Myl6,inactive: 2.04
20,GCUCUUCUCGCAUUCCUAUTT against Gpc2,inactive: -0.68
21,CGUACUUUAGGCAACCUAATT against 4930403J22Rik,inactive: -0.193
22,GGACAUGAUCGACGACUACTT against Zfyve28,inactive: -1.11
23,GGUGUGAGAUCGAAUCAGATT against Arhgef18,inactive: -0.136
24,GGCCAUGUUGCAUCAGUUGTT against Kif27,inactive: 0.0542
25,CCUUGACUCGUAAAUACUUTT against 2400003C14Rik,inactive: -1.3
26,GGCGCGAAGUGUGAAUUUCTT against 3000002B06Rik,inactive: 0.671

row,Sequence,z-score
1,GGAUGACAAGACAUCACUUTT against 1300010K09Rik,inactive: 0.185
2,GGCUGUUCGCUGCUACGAATT against Utx,inactive: -0.26
3,CCCAAUGCAUCUCUGCUCATT against AI987662,inactive: -0.682
4,CCCUGGUACAUUUCACGUCTT against LOC387334,inactive: 0.736
5,GGAUGAUCUCUACAGUAUATT against Cckar,inactive: 0.669
6,GGUCAUCAGCUUGUAACCATT against 2010311D03Rik,inactive: 0.0946
7,GCUUACCUUGGACAAAUGUTT against Hiat1,inactive: 1.14
8,GGACAAAGCUAUUGGGAUUTT against Olfr402,inactive: -1.84
9,CGUAGACUGAUAUAGCAAUTT against Irf5,inactive: 0.31
10,CGAGUAUUUUGAAAUCCUGTT against 5430419D17Rik,inactive: -0.0321
11,GCCUUUGAGGUUAUGAUCATT against Klk7,inactive: 2.54
12,CCUACAUUGAUCAUCUUUATT against Olfr901,inactive: 1.05
13,GCGUGAGUCCCAGAAGCUUTT against 2410018L13Rik,inactive: -0.857
14,GGGACCACGUCACUCUUAATT against Rab6b,inactive: 0.0925
15,GGGCAACGAGCUGUUCAAATT against AW538196,inactive: 0.223
16,GGACAAAAACAAGAUCCUCTT against Hspa2,inactive: 2.78
17,GGUUAAGAUUCCAGAGCCATT against 9230112O05Rik,inactive: -0.723
18,GCACAUGCACUUCUCACUUTT against Olfr223,inactive: -0.3
19,GCCUAUUCUAUCGAUAACCTT against Cdh23,inactive: 0.881
20,GGGAAAUGUUGAACAUAUCTT against Lap3,inactive: -0.259
21,CCCAUCUCCUUAAAGUCAATT against Ripk3,inactive: 0.792
22,GCUAAAUUUACUUGUAUGGTT against Mcp,inactive: -0.329
23,ACAAAUCACACGUGUUAGUTT against LOC384806,inactive: 0.756
24,CCUGGACCCAUUAUUUGCCTT against Slc35a2,inactive: 0.186
25,GGAUGAAGACGGAUUCCUCTT against Map1lc3a,inactive: 1.41
26,GGGUUUUUUUAACUGCUUUTT against Efemp1,inactive: 0.198

# Random excerpt: 5 records from the list
row,Sequence,z-score
19,GCCUAUUCUAUCGAUAACCTT against Cdh23,inactive: 0.881
12,CCUACAUUGAUCAUCUUUATT against Olfr901,inactive: 1.05
10,CGAGUAUUUUGAAAUCCUGTT against 5430419D17Rik,inactive: -0.0321
8,GGACAAAGCUAUUGGGAUUTT against Olfr402,inactive: -1.84
9,CGUAGACUGAUAUAGCAAUTT against Irf5,inactive: 0.31
